Values of other authors as cited in US10287313B2, “RNA monomers containing 0-acetal levulinyl ester groups and their use in RNA microarrays” (THE ROYAL INSTITUTION FOR THE ADVANCEMENT OF …, priority 2008, dated 2019).
At least one read-out could not be matched to a standard name with certainty.

Molecular target: T1, RNase A (Bos taurus, UniProt P61823)
T1 sequence (P61823 27-150): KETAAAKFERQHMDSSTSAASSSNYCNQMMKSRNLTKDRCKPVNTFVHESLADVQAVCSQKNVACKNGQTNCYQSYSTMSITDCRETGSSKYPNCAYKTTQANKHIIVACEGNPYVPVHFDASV
Conditions: reference substrate, 6-FAM fluorescence increase on cleavage; cited from earlier work

For 6-FAM-(dA)2rU(dA3)-6-TAMRA, the “Reference activity kcat/Km” value is given as 4.7 ± 0.6 10^7 M^−1s^−1.

For 6-FAM-(dA)3rU(dA4)-6-TAMRA, the “Reference activity kcat/Km” value is given as 4.8 ± 0.5 10^7 M^−1s^−1.
